{"source": "PubChem BioAssay AID1347076", "about": "(National Center for Advancing Translational Sciences (NCATS), 2019)", "note": "The campaign covered roughly 400,000 compounds. About 13,000 (3.2%) were called active. The shares of active, inactive and inconclusive entries below differ from those in the screen. The call rests on the fitted dose curve; in most records, active means well fitted cell-killing curve with a large enough effect; inconclusive means small, poorly fitted or top-dose-only effect, or effect the other way; inactive means flat fitted curve, though single readings scatter. Where the call is inconclusive, the potency comes from a doubtful curve fit. On the % scale 0 is the no-effect control and ±100 the full control effect; potency means the concentration at half of the fitted maximal effect.", "data": [{"test": "qHTS assay for MDR1-selective chemotherapeutics: Primary screen using the drug-selected MDR subline cells KB-V1; further: nearly all actives have a fitted effect of over 60% in size", "conditions": "KB-V1 MDR cells viability, CellTiter-Glo, 72 h; activity change, negative = cytotoxicity: at 46.1 µM (top of the series)", "procedure,_shortened": "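KB-V1 cells (P-gp-expressing MDR subline of KB-3-1) in phenol-red-free DMEM with 10% FBS were exposed to library compounds over a concentration series for 72 h at 37 degrees C. Viability read by CellTiter-Glo luminescence; concentration-effect curves fitted after normalization.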", "values": [{"compound": "CN(C)c1nc(SCCOC(=O)c2ccccc2)nc(N(C)C)n1", "Potency": "inconclusive: 29.1 µM [cytotoxic, single point]"}, {"compound": "COc1ccccc1N(CC(=O)Nc1ccccc1C(F)(F)F)S(=O)(=O)c1ccc(C)cc1", "activity change, negative = cytotoxicity": "inactive: -19%"}, {"compound": "CCOC(=O)c1c(C)n(C)c2ccc(OC)c(NC(=O)CN3CCN(Cc4ccccc4)CC3)c12", "Potency": "inconclusive: 1.3 µM [cytotoxic, partial curve, poor fit]"}, {"compound": "COc1ccccc1NS(=O)(=O)c1cn(C)c(C)n1", "Potency": "inconclusive: 18.4 µM [rising, single point]"}, {"compound": "CCc1ccc(-c2ccc(SCC(=O)Nc3nnc(C)s3)nn2)cc1", "Potency": "inconclusive: 8.2 µM [cytotoxic, partial curve]"}, {"compound": "Nc1nc(N)nc(-c2cc(F)ccc2O)n1", "activity change, negative = cytotoxicity": "inactive: 8.89%"}, {"compound": "O=[N+]([O-])c1ccc(N/N=C2\\CC3CC=CC23)c([N+](=O)[O-])c1", "note": "(configuration not stated)", "Potency": "inconclusive: 29.1 µM [cytotoxic, single point]"}, {"compound": "Cn1c(=O)c(=O)n(C)c2cc(S(=O)(=O)CCC(=O)N3CCOCC3)ccc21", "Potency": "inconclusive: 23.1 µM [rising, single point]"}, {"compound": "CCCN(CC(=O)Nc1ccccc1OC)C(=O)c1ccc2[nH]c3c(c2c1)CC(C)CC3", "note": "(configuration not stated)", "Potency": "active: 16.4 µM"}, {"compound": "O=C(CCCc1ccccc1)Nc1cccc2c1CCCC2", "Potency": "inconclusive: 20.6 µM [cytotoxic, partial curve, poor fit]"}, {"compound": "O=C1c2ccccc2C(=O)c2c1cccc2N1CCN(CCO)CC1", "Potency": "inconclusive: 14.6 µM [cytotoxic, partial curve, poor fit]"}, {"compound": "CCOC(=O)N(C)c1c(CC)nc2c(OCc3ccc(F)c(F)c3)cccn12", "Potency": "inconclusive: 7.31 µM [cytotoxic, partial curve, poor fit]"}, {"compound": "COc1ccc(OC)c(NC(=O)C2CCN(S(=O)(=O)c3ccc4c(c3)CC(C)N4C(C)=O)CC2)c1", "note": "(configuration not stated)", "Potency": "inactive"}, {"compound": "Cc1ccc(SCC(=O)N2CCc3ccccc32)cc1", "activity change, negative = cytotoxicity": "inactive: 5.12%"}, {"compound": "CC(C)Nc1ncnc2c1cnn2-c1ccccc1", "Potency": "inconclusive: 16.4 µM [cytotoxic, single point]"}, {"compound": "COc1ccc(CCNC(=O)C2CCCN(Cc3nc(-c4cccc(Cl)c4)oc3C)C2)cc1OC", "note": "(configuration not stated)", "Potency": "active: 5.8 µM"}, {"compound": "Cc1cc(C)cc(OCC(=O)N/N=C/c2ccncc2)c1", "Potency": "inconclusive: 2.59 µM [cytotoxic, partial curve, poor fit]"}, {"compound": "COc1ccccc1NC(=O)NC1CC(=O)N(c2ccc3c(c2)OCCO3)C1", "note": "(configuration not stated)", "activity change, negative = cytotoxicity": "inactive: -12.8%"}, {"compound": "O=C(CC1Sc2ccccc2NC1=O)Nc1cccc(C(F)(F)F)c1", "note": "(configuration not stated)", "Potency": "inconclusive: 25.9 µM [cytotoxic, partial curve, poor fit]"}, {"compound": "CCOC(=O)c1cnc(SCC(=O)Nc2cc(OC)cc(OC)c2)nc1N", "Potency": "active: 2.31 µM"}, {"compound": "CC1(C)NC(=O)N(CCOCCOc2cccc(Oc3ccccc3)c2)C1=O", "activity change, negative = cytotoxicity": "inactive: -7.26%"}, {"compound": "CC[C@H](C)[C@@H](CO)NC(=O)[C@H]1O[C@@H](n2ccc(N)nc2=O)[C@H](O)[C@@H]1O", "activity change, negative = cytotoxicity": "inactive: -10.1%"}, {"compound": "CCOc1cccc(OCCOCCNC(C)(C)C)c1", "Potency": "inconclusive: 9.2 µM [cytotoxic, partial curve, poor fit]"}, {"compound": "CC(C)c1ccc(NC(=O)c2ccc(=O)n(Cc3ccccc3)c2)cc1", "Potency": "inconclusive: 25.9 µM [cytotoxic, single point]"}, {"compound": "CCOC(=O)C1=CN(Cc2cccc(I)c2)S(=O)(=O)N(C)C1C", "note": "(configuration not stated)", "activity change, negative = cytotoxicity": "inactive: -0.0395%"}, {"compound": "COc1ccccc1C(=O)NCCCNc1nc2cc(C)cc(C)c2cc1C#N", "Potency": "inconclusive: 0.0065 µM [cytotoxic, full curve, poor fit]"}, {"compound": "CCOc1ccc(NC(=O)COn2nnc3ccc(S(=O)(=O)N4CCOCC4)cc32)cc1", "Potency": "inconclusive: 29.1 µM [cytotoxic, single point]"}, {"compound": "CN(Cc1ccccc1)C(=O)c1ccccc1-c1ccccc1", "Potency": "inconclusive: 29.1 µM [cytotoxic, single point]"}, {"compound": "CCc1ccc(-n2c(=O)c3ccccc3n(Cc3ccccc3C#N)c2=O)cc1", "Potency": "inconclusive: 16.4 µM [rising, partial curve]"}, {"compound": "COc1cc2oc3ccccc3c(=O)c2cc1OC", "Potency": "inconclusive: 20.6 µM [cytotoxic, single point]"}, {"compound": "O=C1CCN(Cc2ccccc2)C=C1c1ccc2ccccc2c1", "activity change, negative = cytotoxicity": "inactive: -3.02%"}, {"compound": "O=C(c1ccc2c(c1)N(Cc1ccc(Cl)cc1)C(=O)c1ccccc1S2(=O)=O)N1CCOCC1", "activity change, negative = cytotoxicity": "inactive: -3.56%"}, {"compound": "O=S(=O)(N/N=C/c1ccc2c(c1)OCO2)c1ccc(Br)cc1", "activity change, negative = cytotoxicity": "inactive: -1.4%"}, {"compound": "O=C(CO/N=C/c1ccc(OC(F)F)cc1)NCc1ccc(F)cc1", "Potency": "inconclusive: 23.1 µM [cytotoxic, partial curve]"}, {"compound": "COCC(=O)N1CCC(Oc2ccc(C(=O)NCCc3ncccc3C)cc2)CC1", "activity change, negative = cytotoxicity": "inactive: 0%"}, {"compound": "O=S1(=O)N=C(Sc2ccc3c(c2)OCCO3)c2ccccc21", "activity change, negative = cytotoxicity": "inactive: 25%"}, {"compound": "O=C(CSc1nc2c(oc3ccccc32)c(=O)n1-c1ccccc1)Nc1ccc(F)c(Cl)c1", "activity change, negative = cytotoxicity": "inactive: -3.06%"}, {"compound": "CN(C)C(=O)c1ccccc1Sc1cc(Cl)ccc1Cl", "Potency": "inconclusive: 23.1 µM [cytotoxic, partial curve, poor fit]"}, {"compound": "Cc1cc(NC(=O)CSc2nc3ccsc3c(=O)n2Cc2ccccn2)n[nH]1", "Potency": "inconclusive: 18.4 µM [cytotoxic, single point]"}, {"compound": "COc1ccc(N=C2NC(=O)C(CC(=O)NCCc3ccc(OC)c(OC)c3)S2)cc1", "note": "(configuration not stated)", "Potency": "inconclusive: 7.31 µM [rising, partial curve, poor fit]"}, {"compound": "Cn1c(SCC(=O)N2CCOCC2)nnc1-c1ccc(Cl)cc1Cl", "Potency": "inconclusive: 20.6 µM [cytotoxic, partial curve]"}, {"compound": "Cc1ccccc1CSc1ccc2nnc(-c3ccccn3)n2n1", "Potency": "inconclusive: 9.2 µM [cytotoxic, partial curve]"}, {"compound": "COc1cc(NC(=S)N2CCN(S(=O)(=O)c3ccccc3)CC2)cc(OC)c1", "activity change, negative = cytotoxicity": "inactive: -4.4%"}, {"compound": "O=C(CN1C2CCCC1CC(NC(=O)c1ccco1)C2)Nc1ccccc1C(F)(F)F", "note": "(configuration not stated)", "Potency": "inconclusive: 9.2 µM [cytotoxic, partial curve, poor fit]"}, {"compound": "CCCSc1nnc(NC(=O)Nc2ccc(F)cc2)s1", "Potency": "inconclusive: 25.9 µM [cytotoxic, single point]"}, {"compound": "COc1cc(C)ccc1S(=O)(=O)NC(=O)C1(C)CCN1C(=O)c1ccc(C(F)(F)F)nc1C", "note": "(configuration not stated)", "activity change, negative = cytotoxicity": "inactive: 3.83%"}, {"compound": "Cc1cccc(OCCC(=O)NCC(c2ccccc2)N(C)C)c1", "note": "(configuration not stated)", "Potency": "inconclusive: 10.3 µM [cytotoxic, partial curve]"}, {"compound": "Cc1ccc(OCc2nnc(SCC(=O)Nc3cccc4ccccc34)n2-c2ccccc2)cc1", "Potency": "inconclusive: 25.9 µM [cytotoxic, partial curve, poor fit]"}, {"compound": "CN(CC(=O)NCCc1ccccc1)S(=O)(=O)c1ccc(Br)s1", "Potency": "inconclusive: 5.17 µM [cytotoxic, partial curve]"}, {"compound": "Cc1ccccc1Cn1nnc(C(=O)Nc2cccc(C)c2C)c1N", "Potency": "active: 13 µM"}, {"compound": "Cc1ccc(S(=O)(=O)N(CC(=O)N2CCOCC2)c2ccc(C(C)C)cc2)cc1", "Potency": "inconclusive: 7.31 µM [cytotoxic, partial curve]"}, {"compound": "Cc1nc([N+](=O)[O-])c(C(=O)OCc2ccccc2Br)n1C", "Potency": "active: 20.6 µM"}, {"compound": "Cc1ccc(S(=O)(=O)NCCC(=O)Nc2ccc(Cl)c(Cl)c2)cc1", "Potency": "active: 14.6 µM"}, {"compound": "CN1C=CC2=C(C#N)C(N)C(C#N)(C#N)[C@H](c3ccccc3)[C@H]2C1", "note": "(some centres not stated)", "Potency": "inconclusive: 23.1 µM [cytotoxic, partial curve, poor fit]"}, {"compound": "COc1ccc(N(CC(=O)NCCc2ccc(Cl)cc2)S(=O)(=O)c2c(C)[nH]c(=O)[nH]c2=O)cc1", "activity change, negative = cytotoxicity": "inactive: 0%"}, {"compound": "CC(C)Cc1nnc(NC(=O)CCNC(=O)c2ccccc2Cl)s1", "activity change, negative = cytotoxicity": "inconclusive: 44.3%"}, {"compound": "CC(=O)c1ccc(-c2c(CCO)sc3ccccc23)cc1", "Potency": "inconclusive: 20.6 µM [cytotoxic, single point]"}, {"compound": "CC(=O)n1cc(N(C(=O)CCl)c2ccc(C)cc2)c2ccccc21", "Potency": "inconclusive: 25.9 µM [cytotoxic, single point]"}, {"compound": "CNC(=O)c1cnn(-c2nc(-c3ccc(OC)cc3)cs2)c1C(F)(F)F", "Potency": "inconclusive: 25.9 µM [cytotoxic, single point]"}, {"compound": "CCOc1ccc(C(=O)NCc2ccco2)cc1Cl", "activity change, negative = cytotoxicity": "inactive: -8.44%"}, {"compound": "COc1ccc(NC(=O)CS(=O)(=O)c2cn(CC(=O)N3CCOCC3)c3ccccc23)cc1", "activity change, negative = cytotoxicity": "inactive: 21.8%"}, {"compound": "CC(C)c1ccc(NC(=O)Cc2ccc(NC3=NC4CS(=O)(=O)CC4S3)cc2)cc1", "note": "(configuration not stated)", "activity change, negative = cytotoxicity": "inactive: 12.3%"}, {"compound": "Cc1cccc(OCCCC(=O)NNC(=O)c2ccccn2)c1", "Potency": "inconclusive: 2.06 µM [cytotoxic, full curve, poor fit]"}, {"compound": "COc1ccc(CNc2ncc(-c3ccc(F)cc3)n2C)c2ccccc12", "Potency": "inconclusive: 23.1 µM [cytotoxic, single point]"}, {"compound": "O=C(O)CCn1ccc2cc(S(=O)(=O)N3CCCCCC3)ccc21", "Potency": "inactive"}, {"compound": "C=CCN(C(=O)CSC1=NC(=O)CN1C(C)=O)c1nc(C)c(-c2ccccc2)s1", "activity change, negative = cytotoxicity": "inactive: 8.81%"}, {"compound": "CC(=NNC(=S)N1CC2CCC(CC2)C1)c1cnccn1", "Potency": "inconclusive: 0.291 µM [cytotoxic, full curve, poor fit]"}, {"compound": "CNC(=O)CSc1nc2ccccc2c(=O)n1CCc1ccccc1", "activity change, negative = cytotoxicity": "inactive: -3.17%"}, {"compound": "CN(C)S(=O)(=O)c1ccc(N2CCCC2)c(C(=O)NCC2CCCO2)c1", "note": "(configuration not stated)", "activity change, negative = cytotoxicity": "inactive: -2.1%"}, {"compound": "CN(C)S(=O)(=O)Nc1cccc(NC(=O)CC23CC4CC(CC(C4)C2)C3)c1", "activity change, negative = cytotoxicity": "inactive: -3.7%"}, {"compound": "Cc1cccn2c(=O)c(C(=O)N3CCN(c4ccccc4)CC3)cnc12", "activity change, negative = cytotoxicity": "inactive: -4.68%"}, {"compound": "Cc1sc2ncnc(N3CCC(C(=O)N(C)CC(=O)Nc4ccccc4Cl)CC3)c2c1C", "Potency": "inconclusive: 29.1 µM [cytotoxic, single point]"}]}]}
